These are yes or no findings as the source states them, for the method shown. Some binding calls cover weakened binding; strength is not graded here. For part of these data: Tags and fused reporters may be left off the sequences shown.

Protein sequences, listed by entry. Tags and fused reporters are not part of them. Lines headed by an entry give the natural chain unless they say otherwise; changes in a name come on top.
UniProt Q969D9: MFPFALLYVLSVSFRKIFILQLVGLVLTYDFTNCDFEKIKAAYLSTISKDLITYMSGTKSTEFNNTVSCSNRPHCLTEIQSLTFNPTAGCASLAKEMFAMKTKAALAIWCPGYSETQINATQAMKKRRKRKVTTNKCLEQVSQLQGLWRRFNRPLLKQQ

The record followed here is patent US20250376501A1.

Assay [1] addresses hTSLP recombinant protein (ACROBiosystems, Cat. No. TSP-H52Ha) (human) (UniProt Q969D9). The experiment in a line: competitive ELISA, mouse IL-7Rα-his coated, hTSLP and hTSLPR-Fc added with titrated 3H10-his; blocked: hTSLP/hTSLPR-Fc complex binding to mouse IL-7Rα-his, anti-human Fc HRP.
For assay [2] the target is unchanged. The experiment in a line: competitive ELISA, TSLPR-Fc coated, hTSLP and hIL-7Rα-mFc added with the titrated blocker; blocked: hIL-7Rα-mFc binding to hTSLP/TSLPR-Fc complex, anti-mouse Fc HRP.
Assay [3] has as its target hTSLP-mFc recombinant protein (ACROBiosystems, Cat. No. TSP-H5255) (human) (UniProt Q969D9). The experiment in a line: ELISA, hTSLP-mFc coated at 50 ng/well, anti-His HRP, OD450.
Assay [4] concerns the target hTSLP recombinant protein (ACROBiosystems, Cat. No. TSP-H52Ha) (human) (UniProt Q969D9). The experiment in a line: phage display panning on coated hTSLP.
For a further assay, the target named is wild-type hTSLP (human) (UniProt Q969D9). The experiment in a line: Gator BLI, reference of the alanine scan.

B1: 3H10-his recombinant protein (designed binder, not shown: small tags and cut ends)
chain: GSHMDLGKKLLEAAWAGRDDEVRILMANGADVNAGDASGDTPLHLAAFSGHLEIVEVLLKHGADVNAEDLLGMTPLHLAAPFGHLEIVEVLLKHGADVNAAARNNGKTPLHLAAFVGHLEIVEVLLKNGADVNAQDKFGKTAFDISIDNGNEDLAEILQKLNG
With B1, the binding entry in assay [1], in assay [2] and in assay [3] was “binds” throughout.

B2: 3H10 clone (designed binder)
chain: B1 chain
For B2, the binding result in assay [4] was “binds”.

B3: 3H10-biotin protein (designed binder)
chain: B1 chain
modifications: biotin (site not stated)
As to B3, the binding entry in the assay with wild-type hTSLP (human) is on record as “binds”.

B4: 1A1 mutant G7W1 (designed binder)
chain: GSDLGKKLLEAAWAGRDDEVRILMANGADVNAGDASGDTPLHLAAVVGHLEIVEVLLKHGADVNAEDLLGMTPLHLAAPFGHLEIVEVLLKHGADVNAAARNNGKTPLHLAAFVGHLEIVEVLLKNGADVNAQDKFGKTAFDISIDNGNEDLAEILQKLNG
As for B4, the binding result in assay [4] is “binds”.
